Laboratory results: PubChem BioAssay AID1487 (National Center for Advancing Translational Sciences (NCATS), 2009)
The list shows a part of the results. These are further read-outs of the screen, such as a control signal, another cell line or another target. No call is given for them. The list favours compounds with an active or inconclusive main result. The note in brackets gives the kind of curve behind each potency; many fits are weak.

Assay: qHTS Assay for Modulators of Lamin A Splicing
Conditions: HeLa LMNA splicing GFP/RFP minigene ratio, 48 h
Outline: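 S3 HeLa stable clones carrying a lamin A-EGFP splicing minigene plus DsRed2 were seeded at 600 cells/well in Opti-MEM with 2% FBS, pin-dosed and incubated 48 h at 37°C. Acumen cytometry (488 nm) gave the GFP/RFP total-intensity ratio.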

[1] = measured here: RFP viability control channel
[2] = measured here: GFP splicing reporter channel

C[C@]12CC[C@@H]3c4ccc(O)cc4[C@@H](O)C[C@H]3[C@@H]1CC[C@@H]2O
AC50 [1]: 35.5 µM [rising, single point]

CCNC(=O)[C@H]1O[C@@H](n2cnc3c(N)ncnc32)[C@H](O)[C@@H]1O
AC50 [2]: 0.02 µM [rising, full curve, poor fit]

COc1cccc(NP(=O)(Oc2ccc(Cl)cc2)Oc2ccc(Cl)cc2)c1
AC50 [1]: 10 µM [rising, partial curve, poor fit]

COc1ccc(N2C(=O)NC(=O)/C(=C/c3cccc(OC(=O)c4cccs4)c3)C2=O)cc1Cl
AC50 [1]: 5.62 µM [rising, single point]

C[C@@H]1O[C@@H](O[C@H]2C[C@@H](O)[C@]3(CO)[C@@H]4C(CC[C@]3(O)C2)[C@@]2(O)CC[C@H](C3=CC(=O)OC3)[C@@]2(C)C[C@H]4O)[C@H](O)[C@H](O)[C@H]1O (stereo partly specified)
AC50 [2]: 1 µM [falling, full curve] | AC50 [1]: 0.224 µM [falling, full curve]

CC1CN(c2cc([N+](=O)[O-])ccc2Cl)CC(C)N1 (stereo unspecified)
AC50 [2]: 0.00794 µM [rising, full curve, poor fit]

CC(=O)[C@@]1(O)CC[C@H]2C3CCC4=CC(=O)CC[C@]4(C)C3CC[C@@]21C (stereo partly specified)
AC50 [2]: 5.62 µM [falling, partial curve, poor fit] | AC50 [1]: 5.62 µM [falling, single point]

CC(N=Cc1c(O)[nH]c(=O)[nH]c1=O)c1ccccc1 (stereo unspecified)
AC50 [2]: 6.31 µM [rising, single point]

CCCCn1c(O)c(C(CC)=Nc2ccc(OC)cc2OC)c(=O)[nH]c1=O
AC50 [1]: 35.5 µM [falling, single point]

O=C(O)C12C3CCCC1C32c1ccccc1 (stereo unspecified)
AC50 [1]: 0.0398 µM [falling, full curve, poor fit]

COC(C(=O)C(O)C(C)O)C1Cc2cc3cc(OC4CC(OC5CC(O)C(OC)C(C)O5)C(OC(C)=O)C(C)O4)c(C)c(O)c3c(O)c2C(=O)C1OC1CC(OC2CC(OC3CC(C)(O)C(OC(C)=O)C(C)O3)C(O)C(C)O2)C(O)C(C)O1 (stereo unspecified)
AC50 [2]: 0.0631 µM [falling, full curve] | AC50 [1]: 0.224 µM [falling, full curve]

O=P1(NCCCl)OCCCN1CCCl (stereo unspecified)
AC50 [2]: 7.94 µM [falling, partial curve, poor fit] | AC50 [1]: 0.0562 µM [falling, full curve, poor fit]

O=C1NC(=O)C(CCc2ccccn2)(Cc2cccc(Cl)c2Cl)C(=O)N1c1ccc(Br)cc1 (stereo unspecified)
AC50 [1]: 20 µM [rising, single point]

O=C1NC(=O)C2(Cc3ccccc3N3CCCC32)C(=O)N1c1ccc(Cl)cc1 (stereo unspecified)
AC50 [2]: 35.5 µM [falling, partial curve, poor fit]

Cc1cccc(-n2c(O)c(C)c(=O)[nH]c2=S)c1
AC50 [2]: 1.58 µM [falling, full curve] | AC50 [1]: 1.41 µM [falling, full curve, poor fit]

CC(=O)OC(CC(=O)O)C[N+](C)(C)C (stereo unspecified)
AC50 [2]: 14.1 µM [rising, partial curve, poor fit] | AC50 [1]: 15.8 µM [rising, single point]

Cc1ccc(Cn2cccc(C(=O)Nc3nc4ccc(C)cc4s3)c2=O)cc1
AC50 [1]: 3.55 µM [falling, partial curve, poor fit]

CCCCCCCCCCCCCCCC(=O)OC(C)C
AC50 [2]: 0.0398 µM [falling, full curve, poor fit] | AC50 [1]: 25.1 µM [falling, single point]

C/C(=N\N1CCCCCC1)c1c(O)n(-c2ccccc2)c(=O)[nH]c1=O
AC50 [1]: 17.8 µM [rising, single point]

CCOc1ccc2c(c1)c(C(C)=O)c(C)n2Cc1ccco1
AC50 [1]: 0.00398 µM [falling, full curve, poor fit]

O=c1[nH]c(=O)n(Cl)c(=O)n1Cl
AC50 [2]: 35.5 µM [falling, single point]

C=C(C)[C@H]1CC[C@]2(C(=O)O)CC[C@]3(C)[C@@H](CC[C@H]4[C@@]5(C)CC[C@@H](O)C(C)(C)[C@@H]5CC[C@@]43C)[C@H]12
AC50 [2]: 4.47 µM [falling, partial curve] | AC50 [1]: 5.01 µM [falling, partial curve]

CCN1C[C@]2(C)CC[C@H](O)[C@@]34[C@@H]5CC6[C@@H](OC)C[C@@](O)([C@@H]5[C@@H]6O)[C@H](C[C@@H]23)[C@H]14
AC50 [2]: 3.16 µM [falling, single point] | AC50 [1]: 3.16 µM [falling, single point]

CCCOc1ccccc1C1SCC(=O)Nc2c1c(=O)[nH]n2C(C)CCC (stereo unspecified)
AC50 [2]: 35.5 µM [rising, single point]

CCCCCCCCCCCCCC(=O)O[C@@H]1[C@@H](C)[C@@]2(O)[C@@H](C=C(CO)C[C@@]3(O)C(=O)C(C)=C[C@@H]23)C2C(C)(C)[C@@]21OC(C)=O (stereo partly specified)
AC50 [2]: 35.5 µM [falling, partial curve, poor fit] | AC50 [1]: 35.5 µM [falling, partial curve]

CN1OC[C@@H]2COc3ccc4ccccc4c3[C@@H]21
AC50 [2]: 0.0501 µM [rising, full curve]

CCOC(=O)c1ccc(N2CCN(c3ccccc3F)CC2)c(NC(=O)Nc2ccc(Cl)c(Cl)c2)c1
AC50 [1]: 5.62 µM [rising, full curve]

C=CCN1C(=O)NC(=O)/C(=C/c2ccc(N(C)C)c(Br)c2)C1=O
AC50 [1]: 0.00501 µM [falling, full curve, poor fit]

CCn1cc(CN(C)S(=O)(=O)c2ccc3ccccc3c2)c(C)n1
AC50 [2]: 4.47 µM [rising, partial curve, poor fit] | AC50 [1]: 3.98 µM [rising, full curve]

NC(N)=NS(=O)(=O)c1ccc(N)cc1
AC50 [1]: 0.0178 µM [rising, full curve, poor fit]

CC1OC(O[C@H]2C[C@@H](O)[C@]3(CO)[C@@H]4C(CC[C@]3(O)C2)[C@@]2(O)CC[C@H](C3=CC(=O)OC3)[C@@]2(C)C[C@H]4O)C(O)C(O)C1O (stereo partly specified)
AC50 [2]: 10 µM [falling, partial curve, poor fit] | AC50 [1]: 0.0316 µM [rising, full curve, poor fit]

C/C=C1\C[N@@+]2(C)CC[C@@]34C(=C(C=O)[C@H]1C[C@H]32)Nc1ccccc14
AC50 [2]: 14.1 µM [falling, single point]

NC(=O)CN1CCCC1=O
AC50 [2]: 12.6 µM [falling, single point]

O=[N+]([O-])OC1CO[C@H]2C(O[N+](=O)[O-])COC12 (stereo partly specified)
AC50 [2]: 0.0282 µM [falling, full curve, poor fit]

OC(Cn1cncn1)(Cn1cncn1)c1ccc(F)cc1F
AC50 [2]: 17.8 µM [falling, single point] | AC50 [1]: 0.501 µM [falling, single point]

CC(C)NC(C)C
AC50 [2]: 17.8 µM [rising, single point]

Cc1cc(OCc2cc(C(=O)O)oc2C)c2c3c(c(=O)oc2c1)CCCC3
AC50 [1]: 3.98 µM [rising, full curve, poor fit]

CCCCCCCSc1cc(OC)c(CCN(C)C)cc1OC
AC50 [2]: 17.8 µM [falling, single point] | AC50 [1]: 20 µM [falling, partial curve]

O=C(Cc1ccccc1)N1CCN(C/C=C/c2ccccc2)CC1
AC50 [1]: 15.8 µM [rising, single point]

O=C(Nc1ccc(Cl)cc1)Nc1ccc(Cl)c(Cl)c1
AC50 [2]: 22.4 µM [rising, partial curve, poor fit] | AC50 [1]: 11.2 µM [rising, partial curve, poor fit]

C=CCN1CCC2(C)c3cc(O)ccc3CC1C2C (stereo unspecified)
AC50 [1]: 5.62 µM [falling, single point]

CC(=O)NBr
AC50 [2]: 2.82 µM [rising, single point] | AC50 [1]: 6.31 µM [falling, partial curve, poor fit]

CC(=O)Oc1c2c(c(CC=C(C)C)c3c1C(=O)C1=CC4CC5C(C)(C)OC(C/C=C(\C)C(=O)O)(C4=O)[C@]15O3)OC(C)(CCC=C(C)C)C=C2 (stereo partly specified)
AC50 [2]: 2.24 µM [falling, full curve] | AC50 [1]: 1.26 µM [falling, full curve]

C=Cn1ccnc1P(=S)(c1nccn1C=C)c1nccn1C=C
AC50 [1]: 0.00891 µM [falling, full curve, poor fit]

CCCOC(=O)c1ccccc1
AC50 [1]: 0.0355 µM [rising, full curve, poor fit]

CC(CCC(=O)O)C1CCC2C3C(=O)C[C@@H]4CC(=O)CC[C@@]4(C)C3CC(=O)[C@]12C (stereo partly specified)
AC50 [2]: 1 µM [falling, full curve, poor fit] | AC50 [1]: 22.4 µM [falling, single point]

Cc1cccc(C(=O)Nc2ccc(C(=O)OCc3cc(=O)n4nc(C5CC5)sc4n3)cc2)c1
AC50 [1]: 0.891 µM [rising, full curve, poor fit]

COC(=O)C(O)(c1ccc(NC(=S)NC(=O)c2ccccc2)cc1)C(F)(F)F (stereo unspecified)
AC50 [2]: 10 µM [rising, partial curve] | AC50 [1]: 15.8 µM [rising, single point]

Cc1nc2ccccc2c(=O)n1-c1ccccn1
AC50 [2]: 14.1 µM [rising, single point]

CCCCn1c(=O)c(C(=O)Nc2ccccc2S(N)(=O)=O)c(O)c2ccccc21
AC50 [1]: 35.5 µM [rising, single point]

COc1ccc(CNS(=O)(=O)c2cc3c(cc2C)N(C)CCO3)cc1
AC50 [2]: 0.00501 µM [falling, full curve, poor fit] | AC50 [1]: 0.00316 µM [falling, full curve, poor fit]
